Data on three molecules can be found in PMC10167344.

Sequences of proteins named here, by UniProt entry; tags and fusion partners are left off.
UniProt P60953: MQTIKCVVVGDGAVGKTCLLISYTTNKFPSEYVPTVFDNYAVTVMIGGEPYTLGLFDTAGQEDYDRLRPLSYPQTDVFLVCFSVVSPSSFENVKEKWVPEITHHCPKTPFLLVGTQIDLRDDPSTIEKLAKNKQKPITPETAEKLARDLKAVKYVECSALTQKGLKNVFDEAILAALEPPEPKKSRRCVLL
UniProt P46934: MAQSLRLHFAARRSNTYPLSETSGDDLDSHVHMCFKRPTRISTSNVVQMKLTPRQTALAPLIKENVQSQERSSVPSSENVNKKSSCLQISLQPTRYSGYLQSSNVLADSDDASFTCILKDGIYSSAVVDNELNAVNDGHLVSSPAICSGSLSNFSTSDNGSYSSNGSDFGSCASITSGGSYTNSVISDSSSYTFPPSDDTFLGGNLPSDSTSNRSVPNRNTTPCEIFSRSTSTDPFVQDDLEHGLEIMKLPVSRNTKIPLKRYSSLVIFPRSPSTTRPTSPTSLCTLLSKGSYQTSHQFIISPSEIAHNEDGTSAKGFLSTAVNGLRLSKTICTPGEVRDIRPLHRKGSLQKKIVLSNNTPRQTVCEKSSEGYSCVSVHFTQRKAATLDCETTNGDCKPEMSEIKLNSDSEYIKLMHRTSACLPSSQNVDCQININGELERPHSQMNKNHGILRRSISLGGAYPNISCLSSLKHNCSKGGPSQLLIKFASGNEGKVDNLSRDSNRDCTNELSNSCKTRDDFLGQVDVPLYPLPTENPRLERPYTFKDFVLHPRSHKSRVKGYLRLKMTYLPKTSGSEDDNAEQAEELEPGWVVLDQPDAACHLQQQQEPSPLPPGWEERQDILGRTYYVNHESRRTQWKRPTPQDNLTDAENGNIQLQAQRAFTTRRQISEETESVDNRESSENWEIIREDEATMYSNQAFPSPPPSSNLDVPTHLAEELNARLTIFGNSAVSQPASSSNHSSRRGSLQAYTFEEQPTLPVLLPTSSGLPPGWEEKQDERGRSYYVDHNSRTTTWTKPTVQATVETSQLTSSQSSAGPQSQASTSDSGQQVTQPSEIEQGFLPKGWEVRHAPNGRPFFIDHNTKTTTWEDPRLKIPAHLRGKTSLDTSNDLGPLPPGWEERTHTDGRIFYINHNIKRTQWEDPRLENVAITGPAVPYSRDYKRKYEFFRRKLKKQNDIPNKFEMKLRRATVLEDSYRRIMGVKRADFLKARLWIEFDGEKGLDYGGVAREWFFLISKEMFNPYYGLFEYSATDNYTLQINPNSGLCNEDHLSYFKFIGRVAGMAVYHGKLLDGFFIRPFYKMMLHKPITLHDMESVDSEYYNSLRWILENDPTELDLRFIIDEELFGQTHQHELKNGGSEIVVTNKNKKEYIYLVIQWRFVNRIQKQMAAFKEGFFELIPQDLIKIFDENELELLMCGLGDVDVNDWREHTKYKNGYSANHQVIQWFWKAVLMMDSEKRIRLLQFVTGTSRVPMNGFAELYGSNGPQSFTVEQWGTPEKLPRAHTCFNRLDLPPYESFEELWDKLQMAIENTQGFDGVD

Results are given in words; binding and its absence hold for the method and conditions named. Binding seen in cells or lysates may run through a third protein. Some entries that bind do so weakly or less than the wild type. Sequences can lack the tags named with a protein.

Assay [1] concerns the target T1, Flag-LAPTM5 (lysosomal-associated protein transmembrane 5) (human) (UniProt Q13571).
T1 sequence: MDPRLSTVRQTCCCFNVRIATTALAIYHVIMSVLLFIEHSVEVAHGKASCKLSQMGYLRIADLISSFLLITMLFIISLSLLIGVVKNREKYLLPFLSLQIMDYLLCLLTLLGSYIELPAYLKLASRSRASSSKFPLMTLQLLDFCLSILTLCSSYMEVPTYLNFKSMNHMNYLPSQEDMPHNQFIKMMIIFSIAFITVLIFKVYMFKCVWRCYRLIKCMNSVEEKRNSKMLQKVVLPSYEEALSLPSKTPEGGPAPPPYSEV
Briefly: co-IP; HEK293T or L02 cells (which is not stated for Fig. 2f, 6g, 6i) cotransfected with the indicated plasmids; lysis in 20 mM Tris-HCl pH 7.4, 150 mM NaCl, 1 mM EDTA, 1% NP-40; for LAPTM5-CDC42 also after PA stimulation (Fig. 6i).

Assay [2] addresses T1, Flag-LAPTM5 (lysosomal-associated protein transmembrane 5) (human). Briefly: co-IP; L02 cells cotransfected with the indicated plasmids (Fig. 2d); lysis in 20 mM Tris-HCl pH 7.4, 150 mM NaCl, 1 mM EDTA, 1% NP-40; protein A/G agarose; washes with 300 mM and 150 mM IP lysis buffer.
The next assay addresses GST-HA-CDC42 (human) (UniProt P60953). Briefly: pull-down; GST pull-down (GST precipitation assay); procedure not described in the text shown.

As for “Myc-CDC42 (Cell Division Cycle 42) (from UniProt P60953 1-191)”, the binding result in assay [1] is reported as “binds”.
Turning to “HA-NEDD4 (from UniProt P46934 1-1319) (enzyme)”, the binding entry in assay [2] was “binds”.

B1: Flag-LAPTM5 (lysosomal-associated protein transmembrane 5) (protein, UniProt Q13571 1-262)
chain: T1 sequence
For the molecule B1, the binding entry with GST-HA-CDC42 (human) is listed as “binds”.
